Results on three molecules are retold here after PMC12217353.

Chains of the proteins cited; added tags and fusions are not shown. Lines headed by an entry give the natural chain unless they say otherwise; changes in a name come on top.
UniProt P13569: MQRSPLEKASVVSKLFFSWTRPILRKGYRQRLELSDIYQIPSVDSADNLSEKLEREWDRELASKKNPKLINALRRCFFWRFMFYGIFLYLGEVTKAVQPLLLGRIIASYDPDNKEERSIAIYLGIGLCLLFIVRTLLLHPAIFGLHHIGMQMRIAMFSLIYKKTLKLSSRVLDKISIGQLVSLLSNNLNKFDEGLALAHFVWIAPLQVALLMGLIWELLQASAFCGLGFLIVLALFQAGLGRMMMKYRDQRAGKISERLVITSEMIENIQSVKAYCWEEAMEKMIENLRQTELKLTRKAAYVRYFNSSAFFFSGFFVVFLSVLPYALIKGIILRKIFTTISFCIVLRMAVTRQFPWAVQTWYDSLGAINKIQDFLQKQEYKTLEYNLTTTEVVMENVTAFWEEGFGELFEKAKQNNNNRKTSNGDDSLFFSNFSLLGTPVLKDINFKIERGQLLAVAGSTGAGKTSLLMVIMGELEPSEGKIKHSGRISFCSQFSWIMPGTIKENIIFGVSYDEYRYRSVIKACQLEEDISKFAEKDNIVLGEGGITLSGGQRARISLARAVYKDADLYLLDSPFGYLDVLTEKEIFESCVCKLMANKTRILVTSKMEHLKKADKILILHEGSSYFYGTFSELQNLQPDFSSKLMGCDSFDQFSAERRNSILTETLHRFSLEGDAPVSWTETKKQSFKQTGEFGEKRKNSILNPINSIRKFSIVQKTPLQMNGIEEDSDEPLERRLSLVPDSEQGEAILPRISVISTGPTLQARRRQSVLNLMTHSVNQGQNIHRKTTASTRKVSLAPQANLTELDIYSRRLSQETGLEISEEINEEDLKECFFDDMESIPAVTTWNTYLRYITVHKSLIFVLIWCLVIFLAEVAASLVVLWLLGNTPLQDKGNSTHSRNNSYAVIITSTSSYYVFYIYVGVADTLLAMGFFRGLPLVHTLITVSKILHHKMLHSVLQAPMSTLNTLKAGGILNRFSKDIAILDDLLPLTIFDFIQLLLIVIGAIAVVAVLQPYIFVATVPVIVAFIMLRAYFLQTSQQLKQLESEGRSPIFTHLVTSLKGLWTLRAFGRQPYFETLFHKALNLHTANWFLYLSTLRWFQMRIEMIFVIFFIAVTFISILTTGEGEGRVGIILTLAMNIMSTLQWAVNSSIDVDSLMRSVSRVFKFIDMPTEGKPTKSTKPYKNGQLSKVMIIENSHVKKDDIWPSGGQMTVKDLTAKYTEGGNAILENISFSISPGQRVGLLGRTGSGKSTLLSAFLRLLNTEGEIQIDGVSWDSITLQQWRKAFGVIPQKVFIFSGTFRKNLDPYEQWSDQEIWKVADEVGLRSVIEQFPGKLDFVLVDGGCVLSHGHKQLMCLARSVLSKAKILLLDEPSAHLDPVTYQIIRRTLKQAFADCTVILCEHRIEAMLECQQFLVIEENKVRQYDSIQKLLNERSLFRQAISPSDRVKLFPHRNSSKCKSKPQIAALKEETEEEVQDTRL
UniProt P24588: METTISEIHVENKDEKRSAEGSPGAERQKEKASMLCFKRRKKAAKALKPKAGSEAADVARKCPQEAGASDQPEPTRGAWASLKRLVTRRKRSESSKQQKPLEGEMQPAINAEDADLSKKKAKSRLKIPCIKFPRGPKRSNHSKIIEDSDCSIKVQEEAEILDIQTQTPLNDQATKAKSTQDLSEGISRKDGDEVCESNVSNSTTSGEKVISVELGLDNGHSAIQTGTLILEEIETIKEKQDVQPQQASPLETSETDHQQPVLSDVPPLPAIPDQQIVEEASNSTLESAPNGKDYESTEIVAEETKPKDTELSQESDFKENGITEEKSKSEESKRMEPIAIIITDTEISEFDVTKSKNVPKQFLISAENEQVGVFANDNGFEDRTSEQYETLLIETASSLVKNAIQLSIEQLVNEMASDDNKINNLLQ

These are yes or no findings as the source states them, for the method shown. Binding seen in cells or lysates may run through a third protein. Some binding calls cover weakened binding; strength is not graded here. For some assays here: Tags and fused reporters may be left off the sequences shown.

Experiment [1] deals with CFTR-GFP (UniProt P13569). The experiment is described as follows: condition: only after hydrolysis of PtdSer by PLA1a1-FKBP recruited to FRB with 0.5 µM rapamycin for 8 min; co-IP; lysates of HEK293T cells expressing FRB + PLA1a1-FKBP and treated with 0.5 µM rapamycin for 8 min to hydrolyse plasma membrane PtdSer before lysis; otherwise as the other Co-IP.
Experiment [2] deals with CFTR-GFP (UniProt P13569). The experiment is described as follows: co-IP; lysates of transfected HEK293T cells (PBS with 1% Triton X-100, phosphatase and protease inhibitors, pH 7.4); antibodies overnight at 4 °C, Sepharose beads for 4 h, three washes, blots; some cells co-expressing E-Syt3 or E3C2C, or depleted of PI(4,5)P2 (FRB + FKBP-5PIPase, 0.5 µM rapamycin for 8 min).

For a further experiment, the target named is CFTR(K52A/R55A/R59A) (UniProt P13569). In words: FRET or BRET; live HEK293T cells co-transfected with fluorescent-tagged constructs for 16-18 h; confocal FRET imaging at 37 °C; FRET ratios; some cells stimulated with forskolin/IBMX, co-expressing E-Syt3, ORP5 or ORP8, or depleted of ORP5.
The target in experiment [3] is CFTR-GFP (UniProt P13569). Described as above.
The target of the next experiment is T1, (Δ1-95)NBCe1-B (UniProt Q9Y6R1).
T1 sequence: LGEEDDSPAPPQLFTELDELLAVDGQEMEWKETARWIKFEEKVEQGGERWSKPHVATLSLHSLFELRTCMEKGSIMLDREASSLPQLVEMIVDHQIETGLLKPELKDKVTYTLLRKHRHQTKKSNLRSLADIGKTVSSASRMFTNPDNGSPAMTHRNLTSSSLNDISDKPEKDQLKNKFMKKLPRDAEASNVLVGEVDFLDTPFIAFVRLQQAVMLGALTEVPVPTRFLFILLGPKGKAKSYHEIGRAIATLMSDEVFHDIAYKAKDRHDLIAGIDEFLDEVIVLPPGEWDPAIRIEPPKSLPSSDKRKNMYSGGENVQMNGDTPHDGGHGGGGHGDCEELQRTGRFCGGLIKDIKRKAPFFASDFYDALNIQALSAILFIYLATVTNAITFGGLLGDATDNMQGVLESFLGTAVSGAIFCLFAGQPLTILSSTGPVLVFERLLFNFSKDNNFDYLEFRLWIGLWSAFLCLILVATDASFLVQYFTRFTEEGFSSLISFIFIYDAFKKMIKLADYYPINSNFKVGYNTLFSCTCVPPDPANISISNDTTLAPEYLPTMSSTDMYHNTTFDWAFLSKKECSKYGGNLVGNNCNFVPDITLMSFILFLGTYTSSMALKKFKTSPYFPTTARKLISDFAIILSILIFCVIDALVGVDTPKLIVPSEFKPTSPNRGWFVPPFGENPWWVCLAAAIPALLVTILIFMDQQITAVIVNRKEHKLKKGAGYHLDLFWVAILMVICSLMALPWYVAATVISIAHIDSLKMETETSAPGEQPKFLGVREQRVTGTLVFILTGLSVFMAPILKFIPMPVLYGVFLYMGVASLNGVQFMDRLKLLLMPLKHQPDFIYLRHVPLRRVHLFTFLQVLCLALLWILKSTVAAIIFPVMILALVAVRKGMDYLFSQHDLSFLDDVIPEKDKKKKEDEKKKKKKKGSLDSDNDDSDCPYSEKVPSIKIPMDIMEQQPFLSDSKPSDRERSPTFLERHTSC
Described as above.

In a further experiment the target is T2, NBCe1-B(R44A) (UniProt Q9Y6R1).
T2 sequence: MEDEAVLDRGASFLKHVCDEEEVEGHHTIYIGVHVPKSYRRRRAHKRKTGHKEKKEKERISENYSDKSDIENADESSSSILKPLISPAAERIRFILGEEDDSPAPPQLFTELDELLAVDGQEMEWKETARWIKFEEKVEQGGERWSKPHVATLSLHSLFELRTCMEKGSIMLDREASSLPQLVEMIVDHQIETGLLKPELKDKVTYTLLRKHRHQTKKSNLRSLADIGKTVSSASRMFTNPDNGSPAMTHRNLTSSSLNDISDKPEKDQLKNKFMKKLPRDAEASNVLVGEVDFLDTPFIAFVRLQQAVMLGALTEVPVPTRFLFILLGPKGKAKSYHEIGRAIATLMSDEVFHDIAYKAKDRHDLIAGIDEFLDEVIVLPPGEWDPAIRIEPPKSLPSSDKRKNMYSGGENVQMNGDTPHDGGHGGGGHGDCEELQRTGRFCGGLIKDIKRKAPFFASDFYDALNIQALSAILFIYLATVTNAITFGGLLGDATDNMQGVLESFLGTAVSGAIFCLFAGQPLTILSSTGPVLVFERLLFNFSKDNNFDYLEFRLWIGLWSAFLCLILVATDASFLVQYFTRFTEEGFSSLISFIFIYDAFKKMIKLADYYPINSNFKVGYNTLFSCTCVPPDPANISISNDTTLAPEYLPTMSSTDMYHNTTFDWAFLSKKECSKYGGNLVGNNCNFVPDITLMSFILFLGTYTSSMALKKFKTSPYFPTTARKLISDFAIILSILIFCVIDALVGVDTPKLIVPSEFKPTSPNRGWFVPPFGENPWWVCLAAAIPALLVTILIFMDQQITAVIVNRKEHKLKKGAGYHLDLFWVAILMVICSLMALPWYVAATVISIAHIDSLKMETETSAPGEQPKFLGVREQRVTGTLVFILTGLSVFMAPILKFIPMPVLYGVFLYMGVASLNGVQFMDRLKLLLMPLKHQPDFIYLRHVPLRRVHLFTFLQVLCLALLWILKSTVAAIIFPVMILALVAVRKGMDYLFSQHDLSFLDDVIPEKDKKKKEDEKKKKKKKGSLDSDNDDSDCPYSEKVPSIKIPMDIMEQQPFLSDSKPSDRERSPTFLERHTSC
Described as above.

Experiment [4] concerns the target CFTR-GFP (UniProt P13569). The experiment is described as above. This is another data set of the same source.
Another experiment deals with T3, NBCe1-B-eGFP (UniProt Q9Y6R1).
T3 sequence: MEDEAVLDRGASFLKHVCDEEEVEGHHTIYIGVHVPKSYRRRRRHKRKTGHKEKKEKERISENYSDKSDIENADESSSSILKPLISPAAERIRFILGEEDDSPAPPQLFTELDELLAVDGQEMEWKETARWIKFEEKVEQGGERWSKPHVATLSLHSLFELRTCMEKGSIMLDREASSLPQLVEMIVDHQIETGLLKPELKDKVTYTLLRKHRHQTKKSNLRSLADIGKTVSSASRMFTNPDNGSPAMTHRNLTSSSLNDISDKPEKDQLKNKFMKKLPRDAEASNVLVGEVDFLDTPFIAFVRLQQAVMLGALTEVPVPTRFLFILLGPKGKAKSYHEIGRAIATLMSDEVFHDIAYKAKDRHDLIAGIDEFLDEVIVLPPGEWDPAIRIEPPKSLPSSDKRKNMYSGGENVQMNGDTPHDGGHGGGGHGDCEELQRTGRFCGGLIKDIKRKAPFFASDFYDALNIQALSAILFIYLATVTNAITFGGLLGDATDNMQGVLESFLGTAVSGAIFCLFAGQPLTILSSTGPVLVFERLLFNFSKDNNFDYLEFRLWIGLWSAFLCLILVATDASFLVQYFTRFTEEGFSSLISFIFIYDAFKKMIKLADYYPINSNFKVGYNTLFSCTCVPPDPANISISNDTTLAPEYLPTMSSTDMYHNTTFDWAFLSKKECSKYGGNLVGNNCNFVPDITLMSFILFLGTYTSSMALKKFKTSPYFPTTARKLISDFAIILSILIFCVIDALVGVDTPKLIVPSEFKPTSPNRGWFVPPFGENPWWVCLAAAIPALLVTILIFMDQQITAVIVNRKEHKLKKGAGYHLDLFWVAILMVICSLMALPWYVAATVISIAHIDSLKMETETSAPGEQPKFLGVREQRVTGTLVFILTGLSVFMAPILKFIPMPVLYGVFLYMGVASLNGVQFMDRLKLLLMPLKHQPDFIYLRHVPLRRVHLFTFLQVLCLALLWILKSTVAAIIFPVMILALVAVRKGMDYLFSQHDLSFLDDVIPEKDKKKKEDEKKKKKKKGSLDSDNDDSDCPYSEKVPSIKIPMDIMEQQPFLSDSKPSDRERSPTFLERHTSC
Described as above.

In the case of “native AKAP79 (from UniProt P24588 1-427)”, the binding result is “no binding” in the experiment with CFTR-GFP [1] and “binds” in the experiment with CFTR-GFP [2].
Regarding “AKAP79-mTurqoise2 (from UniProt P24588 1-427)”, the binding result with CFTR(K52A/R55A/R59A) and with CFTR-GFP [3] was “binds” each time.

B1: E-Syt3-mCherry (protein, UniProt A0FGR9 1-886)
chain: MRAEEPCAPGAPSALGAQRTPGPELRLSSQLLPELCTFVVRVLFYLGPVYLAGYLGLSITWLLLGALLWMWWRRNRRGKLGRLAAAFEFLDNEREFISRELRGQHLPAWIHFPDVERVEWANKIISQTWPYLSMIMESKFREKLEPKIREKSIHLRTFTFTKLYFGQKCPRVNGVKAHTNTCNRRRVTVDLQICYIGDCEISVELQKIQAGVNGIQLQGTLRVILEPLLVDKPFVGAVTVFFLQKPHLQINWTGLTNLLDAPGINDVSDSLLEDLIATHLVLPNRVTVPVKKGLDLTNLRFPLPCGVIRVHLLEAEQLAQKDNFLGLRGKSDPYAKVSIGLQHFRSRTIYRNLNPTWNEVFEFMVYEVPGQDLEVDLYDEDTDRDDFLGSLQICLGDVMTNRVVDEWFVLNDTTSGRLHLRLEWLSLLTDQEVLTEDHGGLSTAILVVFLESACNLPRNPFDYLNGEYRAKKLSRFARNKVSKDPSSYVKLSVGKKTHTSKTCPHNKDPVWSQVFSFFVHNVATERLHLKVLDDDQECALGMLEVPLCQILPYADLTLEQRFQLDHSGLDSLISMRLVLRFLQVEERELGSPYTGPEALKKGPLLIKKVATNQGPKAQPQEEGPTDLPCPPDPASDTKDVSRSTTTTTSATTVATEPTSQETGPEPKGKDSAKRFCEPIGEKKSPATIFLTVPGPHSPGPIKSPRPMKCPASPFAWPPKRLAPSMSSLNSLASSCFDLADISLNIEGGDLRRRQLGEIQLTVRYVCLRRCLSVLINGCRNLTPCTSSGADPYVRVYLLPERKWACRKKTSVKRKTLEPLFDETFEFFVPMEEVKKRSLDVAVKNSRPLGSHRRKELGKVLIDLSKEDLIKGFSQWYELTPNGQPRS
Turning to B1, the binding result in the experiment with (Δ1-95)NBCe1-B, with NBCe1-B(R44A), with CFTR-GFP [4] and in the experiment with NBCe1-B-eGFP was “binds” throughout.
